System: polarized human Caco-2-BBE cells
Assay: Nitric oxide production in polarized Caco-2-BBE cells
Type: cell-based

## NCCC[C@H](N)C(=O)O [ornithine]
  NO production (fluorescence intensity): NO production increases
